Source: PubChem BioAssay AID2685 (National Center for Advancing Translational Sciences (NCATS), 2010)
The list shows a part of the results. These are further read-outs of the screen, such as a control signal, another cell line or another target. No call is given for them. Most of these compounds were active or inconclusive in the main read-out, so they are no random draw. The note in brackets gives the kind of curve behind each potency; many fits are weak.

Experiment: qHTS Assay for Lipid Storage Modulators in Drosophila S3 Cells;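 on cell number change: cells counted by Cell Tracker Red CMTPX staining in the red channel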
Conditions: BODIPY lipid droplet fluorescence, 18-24 h; for cell number change: measured here: cell count max response, cells fed with added oleic acid
Method in brief: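 Laser-scanning cytometry quantifies lipid droplet accumulation (500–530 nm total intensity; droplet/cell object ratio) in oleic acid-fed (400 uM added) Drosophila S3 cells treated with a concentration series. 20 uM Triacsin C defined 100% inhibition.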

[1] = measured here: lipid fluorescence (Fed channel) AC50, cells fed with added oleic acid
[2] = measured here: cell number channel AC50, cells fed with added oleic acid

| SMILES | cell number change | AC50 [1] | AC50 [2] |
| --- | --- | --- | --- |
| CCn1cc(Cl)c(C(=O)Nc2cc(C(=O)OC)cc(C(=O)OC)c2)n1 | 12.3% | 0.00461 µM [rising, full curve, poor fit] | – |
| COc1ccc(S(=O)(=O)N(C)c2ccc(C(=O)N3CCN(c4ccccc4)CC3)cc2)cc1OC | -28.5% | 29.1 µM [falling, single point] | – |
| NS(=O)(=O)c1ccc(NCc2cc(Cl)ccc2OCc2ccccc2F)cc1 | 14.2% | 29.1 µM [rising, partial curve] | – |
| O=[N+]([O-])c1ccc(Oc2ccc(S(=O)(=O)N3CCCCC3)cc2)cc1 | 9.1% | – | 3.66 µM [falling, single point] |
| Cc1nnc(SCC(=O)Nc2ccc(F)cc2F)n(N)c1=O | 10.6% | 29.1 µM [rising, single point] | – |
| CC(C)c1cc(C(F)(F)F)n2nc(C(=O)Nc3ccc4c(c3)OCO4)cc2n1 | -9.57% | 13 µM [rising, partial curve] | – |
| NC(=O)C1CCN(c2nc(-c3ccccc3)nc3ccccc23)CC1 | – | 2.91 µM [rising, partial curve] | 2.59 µM [rising, partial curve] |
| Cc1ccc(/C=N/n2c(C3CCCCC3)n[nH]c2=S)s1 | -31.1% | – | 23.1 µM [falling, single point] |
| Cc1ccc(/C=C(\NC(=O)c2ccc(C)cc2)c2nc(=S)[nH][nH]2)cc1 | -63.3% | 23.1 µM [falling, partial curve] | 25.9 µM [falling, partial curve] |
| CCN(CC)c1ccc(/C=N\NC(=O)c2cccc3cc[nH]c23)cc1 | 11.3% | – | – |
| CC1=CC(=C2C(=O)c3ccccc3C2=O)C=C(C)O1 | 33.1% | 29.1 µM [rising, single point] | 18.4 µM [rising, single point] |
| CCN(CC(=O)Nc1ccc2c(c1)OCCO2)C(=O)COc1ccc(C)cc1 | 27.3% | 7.31 µM [rising, partial curve, poor fit] | – |
| CCC(=O)N1CCc2cc(S(=O)(=O)NCCC(=O)NCc3ccc(F)cc3)ccc21 | 17.9% | – | 7.31 µM [rising, single point] |
| COc1ccc(Cl)cc1NC(=O)CN(C)C(=O)Cc1ccc(-c2ccccc2)cc1 | -42.6% | 6.51 µM [falling, partial curve] | 4.11 µM [falling, partial curve] |
| O=S(=O)(c1cccs1)N1CCCc2cccc(O)c21 | 71.4% | – | 29.1 µM [rising, single point] |
| O=C(CN(C(=O)c1csnn1)c1ccccc1Cl)NC1CCCC1 | -18.3% | 0.58 µM [falling, single point] | – |
| Cc1nc(-c2ccccc2)sc1-c1ccn[nH]1 | 5.76% | – | – |
| CCOC(=O)C1=C(C)NC(=S)NC1c1ccc(OC(=O)c2ccco2)cc1 (stereo unspecified) | 19.6% | 29.1 µM [rising, single point] | – |

| SMILES | cell number change | AC50 [1] | AC50 [2] |
| --- | --- | --- | --- |
| Cc1ccc(S(=O)(=O)Nc2ccc(NC(=O)Nc3cccc(C(F)(F)F)c3)cc2)cc1 | -54.3% | 20.6 µM [falling, partial curve] | 23.1 µM [falling, partial curve, poor fit] |
| Cn1cc(/C=C/c2cc[n+](C)cc2)c2cc(Cl)ccc21 | -7.84% | 32.6 µM [falling, single point] | – |
| CCOc1ccc2nc(-c3cc(NC(C)=O)ccc3O)sc2c1 | 19.7% | 0.206 µM [rising, partial curve] | – |
| CCN(Cc1ccccc1)C(=O)COC(=O)c1cc(Cl)nc(Cl)c1 | -30.3% | 0.58 µM [falling, full curve, poor fit] | 0.411 µM [falling, full curve, poor fit] |
| COc1cccc(CN(C)C(=O)c2ccc(NS(=O)(=O)c3ccc(F)cc3)cc2)c1OC | 50% | 6.51 µM [falling, single point] | 29.1 µM [rising, single point] |
| O=C(CNC(=O)c1ccc(Cl)cc1Cl)OCC(=O)c1ccc2c(c1)OCCO2 | 54.8% | – | 2.31 µM [rising, partial curve, poor fit] |
| Cc1c(NC(=O)Nc2ccc(F)cc2F)c(=O)n(-c2ccccc2)n1C | -10.3% | 0.58 µM [rising, single point] | – |
| Fc1ccc(N/N=C/c2ccc(N3CCOCC3)cc2)c(F)c1 | 16.5% | 0.517 µM [rising, full curve] | – |
| Cc1ccc(C(=O)CCS(=O)(=O)c2ccc(Br)cc2)cc1 | -41.6% | – | – |
| Cc1cc(C)n(-c2nc3nonc3nc2Nc2cccc(C)c2C)n1 | -11.9% | 0.82 µM [rising, single point] | – |
| Cc1sc2nc(CSc3ccc([N+](=O)[O-])c(C(F)(F)F)c3)[nH]c(=O)c2c1C | – | 0.116 µM [falling, full curve, poor fit] | 29.1 µM [rising, single point] |
| C#Cc1ccc(CN2CCC(N3CCC(C(=O)NCc4ccccn4)CC3)CC2)cc1 | -63.7% | 29.1 µM [falling, single point] | 23.1 µM [falling, single point] |
| CCOC(=O)N1CCC(NC(=O)Cn2ncc3ccccc32)CC1 | 10.7% | 6.51 µM [falling, single point] | – |
| Cc1ccc(NC(=O)C2CC(=O)n3ncnc3N2)cc1 (stereo unspecified) | -30.5% | 1.16 µM [falling, full curve] | 0.082 µM [falling, full curve] |
| Cn1c(CN2CCCCC2)nc2cc(NS(=O)(=O)c3ccc(Cl)cc3)ccc21 | 0.234% | – | – |
| Cc1ccc(C2CC(c3ccco3)=NN2S(C)(=O)=O)cc1 (stereo unspecified) | 5.14% | 16.4 µM [falling, partial curve] | – |
| COc1ccc(CNC(=O)c2c(C)cc(=O)oc2C)cc1OC | 4.31% | 6.51 µM [falling, single point] | – |
| CC(Oc1ccc(F)cc1)C(=O)Nc1cc(S(=O)(=O)N2CCOCC2)ccc1N1CCCCC1 (stereo unspecified) | -19% | 16.4 µM [falling, single point] | – |

Given as tab-separated lines: part of the list above
SMILES	cell number change	AC50 [1]	AC50 [2]
CCN(Cc1ccccc1)C(=O)COC(=O)c1cc(Cl)nc(Cl)c1	-30.3%	0.58 µM [falling, full curve, poor fit]	0.411 µM [falling, full curve, poor fit]
COc1cccc(CN(C)C(=O)c2ccc(NS(=O)(=O)c3ccc(F)cc3)cc2)c1OC	50%	6.51 µM [falling, single point]	29.1 µM [rising, single point]
O=C(CNC(=O)c1ccc(Cl)cc1Cl)OCC(=O)c1ccc2c(c1)OCCO2	54.8%	–	2.31 µM [rising, partial curve, poor fit]
Cc1c(NC(=O)Nc2ccc(F)cc2F)c(=O)n(-c2ccccc2)n1C	-10.3%	0.58 µM [rising, single point]	–
Fc1ccc(N/N=C/c2ccc(N3CCOCC3)cc2)c(F)c1	16.5%	0.517 µM [rising, full curve]	–
Cc1ccc(C(=O)CCS(=O)(=O)c2ccc(Br)cc2)cc1	-41.6%	–	–
Cc1cc(C)n(-c2nc3nonc3nc2Nc2cccc(C)c2C)n1	-11.9%	0.82 µM [rising, single point]	–
Cc1sc2nc(CSc3ccc([N+](=O)[O-])c(C(F)(F)F)c3)[nH]c(=O)c2c1C	–	0.116 µM [falling, full curve, poor fit]	29.1 µM [rising, single point]
C#Cc1ccc(CN2CCC(N3CCC(C(=O)NCc4ccccn4)CC3)CC2)cc1	-63.7%	29.1 µM [falling, single point]	23.1 µM [falling, single point]
